Columns and labels:
[1] = tested on: primary HCC tissue samples; test: Identification and label-free LC-MS relative quantitation of HLA-presented peptides (presentation profiles/scores), HCC versus normal tissues; set-up: species or system human; key to PeptidePresentation (presentation score): very highly over-presented on tumors compared to a panel of normal tissues (+++); highly over-presented on tumors compared to a panel of normal tissues (++); over-presented on tumors compared to a panel of normal tissues (+); conditions: for PeptidePresentation (presentation score): HCC tumors compared to a panel of normal tissues
[2] = tested on: tumor samples of other tumor types; test: Over-presentation of peptides on additional tumor types versus normal tissues (LC-MS); set-up: species or system human; conditions: over-presentation on more than 5% of the measured tumor samples, or presentation on more than 5% with ratio of geometric means tumor vs normal tissues larger than 3

Substance | PeptidePresentation (presentation score) [1] | Additional Entities (additional tumor types on which the peptide was found over-presented) [2] | Other relevant organs/diseases (additional tumor types on which the peptide was found over-presented) [2] | over-presentation in HCC compared with normal tissues ([1]; FIG. 1 presentation profiles)
6 (KLSPTVVGL; listed as Homo sapiens) [compound 6] | +++ | CLL, OC | Colon, Rectum | 
8 (KLLEEATISV; listed as Homo sapiens) [compound 8] | + | SCLC, MCC, Melanoma, Urinary bladder cancer, Uterine Cancer |  | 
9 (ALANQKLYSV; listed as Homo sapiens) [compound 9] | + | NSCLC, CRC, MCC, OC, Urinary bladder cancer, Gallbladder Cancer, Bile Duct Cancer, PC |  | 
14 (ALADLTGTVV; listed as Homo sapiens) [compound 14] | +++ | NSCLC, SCLC, BRCA, OC, Esophageal Cancer, Urinary bladder cancer, Uterine Cancer, PC | Kidney, Brain, Pancreas | 
15 (LLYGHTVTV; listed as Homo sapiens) [compound 15] | + | NSCLC, SCLC, BRCA, Melanoma, OC, Esophageal Cancer, Urinary bladder cancer, NHL, PC | Kidney, Brain, Colon, Rectum, Pancreas | 
16 (SLLGGNIRL; listed as Homo sapiens) [compound 16] | ++ | GC, PrC, Esophageal Cancer, Urinary bladder cancer, Uterine Cancer, PC | Brain, Colon, Rectum | 
17 (RVASPTSGV; listed as Homo sapiens) [compound 17] | + | AML | Brain | 
22 (RIAGIRGIQGV; listed as Homo sapiens) [compound 22] | +++ | NSCLC, PrC, BRCA, OC, NHL | Kidney, Colon, Rectum | 
23 (RLYDPASGTISL; listed as Homo sapiens) [compound 23] | + | CLL, Melanoma, NHL |  | 
24 (SLAEEKLQASV; listed as Homo sapiens) [compound 24] | +++ | PrC, BRCA, Urinary bladder cancer |  | 
26 (SLLHTIYEV; listed as Homo sapiens) [compound 26] | +++ | PrC, BRCA, Esophageal Cancer, NHL | Colon, Rectum | 
30 (YLGEGPRMV; listed as Homo sapiens) [compound 30] | ++ | NSCLC, Melanoma, Urinary bladder cancer, Uterine Cancer, Gallbladder Cancer, Bile Duct Cancer | Colon, Rectum, CLL | 
32 (ALNAVRLLV; listed as Homo sapiens) [compound 32] | +++ | SCLC |  | 
53 (GLIHLEGDTV; listed as Homo sapiens) [compound 53] | +++ |  |  | 
56 (GVLPGLVGV; listed as Homo sapiens) [compound 56] | + |  |  | 
71 (KLLDNWDSV; listed as Homo sapiens) [compound 71] | +++ |  |  | 
75 (KQMEPLHAV; listed as Homo sapiens) [compound 75] | + |  |  | 
76 (LLADIGGDPFAA; listed as Homo sapiens) [compound 76] | +++ |  |  | 
79 (LLLSTGYEA; listed as Homo sapiens) [compound 79] | +++ |  |  | 
85 (RILPKVLEV; listed as Homo sapiens) [compound 85] | + |  |  | 
98 (SLLSPEHLQYL; listed as Homo sapiens) [compound 98] | ++ |  |  | 
107 (TLGQFYQEV; listed as Homo sapiens) [compound 107] | +++ |  |  | 

Substance | PeptidePresentation (presentation score) [1] | Additional Entities (additional tumor types on which the peptide was found over-presented) [2] | Other relevant organs/diseases (additional tumor types on which the peptide was found over-presented) [2] | over-presentation in HCC compared with normal tissues ([1]; FIG. 1 presentation profiles)
108 (TLLKKISEA; listed as Homo sapiens) [compound 108] | +++ |  |  | 
122 (YLSQAADGAKVL; listed as Homo sapiens) [compound 122] | +++ |  |  | 
130 (ALDAGAVYTL; listed as Homo sapiens) [compound 130] | ++ |  |  | 
146 (FLWTEQAHTV; listed as Homo sapiens) [compound 146] | + |  |  | 
162 (RLMSALTQV; listed as Homo sapiens) [compound 162] | ++ |  |  | 
163 (RLTESVLYL; listed as Homo sapiens) [compound 163] | ++ |  |  | 
167 (SLAESSFDV; listed as Homo sapiens) [compound 167] | ++ |  |  | 
168 (SLAVLVPIV; listed as Homo sapiens) [compound 168] | + |  |  | 
171 (SLIPAVLTV; listed as Homo sapiens) [compound 171] | + |  |  | 
174 (TLAELGAVQV; listed as Homo sapiens) [compound 174] | + |  |  | 
188 (RYSAGWDAKF; listed as Homo sapiens) [compound 188] | + |  |  | 
200 (AYLLQPSQF; listed as Homo sapiens) [compound 200] | +++ |  |  | over-presentation
201 (AYVNTFHNI; listed as Homo sapiens) [compound 201] | +++ |  |  | 
204 (KYRLTYAYF; listed as Homo sapiens) [compound 204] | ++ |  |  | 
205 (VYGLQRNLL; listed as Homo sapiens) [compound 205] | + |  |  | 
212 (VYGDVISNI; listed as Homo sapiens) [compound 212] | +++ |  |  | 
219: peptide found in PLIN2 (gene looked up) (GVMAGDIYSV; listed as Homo sapiens) [compound 219] | + |  |  | 
241 (FVLPLLGLHEA; listed as Homo sapiens) [compound 241] | ++ |  |  | 
253 (RVPPPPQSV; listed as Homo sapiens) [compound 253] | + |  |  | 
314 (YLAPFLRNV; listed as Homo sapiens) [compound 314] | + |  |  | 
322 (ILYDIPDIRL; listed as Homo sapiens) [compound 322] | + |  |  | 

— patent publication US10064926B2, “Peptides and combination of peptides for use in immunotherapy against hepatocellular carcinoma (HCC) and other cancers” (Immatics biotechnologies GmbH, priority 2014, dated 2018)
